The supplement of paper PMC3682954
Where a name gives a salt, the structure may show the parent alone. ± gives the standard deviation of the averaged measurements. This is one part of the list. Most values come without repeats; read them as rough.

Tested on: RAW 264.7
Test: cell viability (MTT) relative to vehicle control; higher = more viable cells
Details: stimulus: HMGB1 5 ug/ml, 18 h
[1] = compound concentration: 1 ug/ml

Row | Structure (SMILES) | cell viability (compound concentration: 3 uM) [%] | cell viability [1] [%]
1 | CC(C)(C)CC(C)(C)c1ccc(OCCOCC[N+](C)(C)Cc2ccccc2)cc1 [Benzethonium chloride] | 94.1 | 
2 | CC(C)(C)CC(C)(C)c1ccc(OCCOCC[N+](C)(C)Cc2ccccc2)cc1 | 84.8 | 
3 | Cn1nnc2c(C(N)=O)ncn2c1=O | 97 | 
4 | Cn1nnc2c(C(N)=O)ncn2c1=O [Temozolomide] | 100 ± 5 | 
5 | COc1ccc(CCn2nnnc2C2(c3ccc(C)cc3)CC2)cc1 [Mephetyl tetrazole] | 105 | 
6 | C=C1C(=O)O[C@H]2[C@H]1CC/C(C)=C/CC[C@@]1(C)O[C@@H]21 [Parthenolide] | 98.3 ± 8.3 | 102
7 | CCCCOc1ccc(C(=O)CCN2CCCCC2)cc1 [Dyclonine hydrochloride] | 109 | 
8 | CCCCOc1ccc(C(=O)CCN2CCCCC2)cc1 | 100 | 
9 | COC(=O)C(C)(N)Cc1ccc(O)cc1 (racemic) [alpha-Methyl-DL-tyrosine methyl ester hydrochloride] | 106 | 
10 | COC(=O)[C@H]1[C@H]2C[C@H]3c4[nH]c5ccccc5c4CCN3C[C@H]2CC[C@@H]1O [Rauwolscine hydrochloride] | 123 | 96.2
11 | CC(CN(C)C)CN1c2ccccc2CCc2ccccc21 (stereo not drawn) | 102 | 
12 | CC(CN(C)C)CN1c2ccccc2CCc2ccccc21 (stereo not drawn) [Trimipramine maleate] | 109 | 
13 | CC(CN(C)C)CN1c2ccccc2CCc2ccccc21 (stereo not drawn) [Trimipramine maleate salt] | 91 | 
14 | OC(CCN1CCCC1)(c1ccccc1)C1CCCCC1 (stereo not drawn) | 102 | 
15 | OC(CCN1CCCC1)(c1ccccc1)C1CCCCC1 (stereo not drawn) [Procyclidine hydrochloride] | 87.4 | 
16 | CC(C)NCC(O)COc1cccc2[nH]ccc12 (stereo not drawn) | 111 | 
17 | CC(C)NCC(O)COc1cccc2[nH]ccc12 (stereo not drawn) [Pindolol] | 108 ± 2.6 | 
18 | C[N+](C)(C)C[C@H](O)CC(=O)[O-] | 111 | 
19 | CC(C)C(=O)c1c(C(C)C)nn2ccccc12 [Ibudilast] | 101 ± 1.2 | 
20 | C[C@H]1[C@H]2CC[C@H]3[C@@H]4CC=C5C[C@@H](N(C)C)CC[C@]5(C)[C@H]4CC[C@]23CN1C [Conessine] |  | 97.3
21 | Nc1ncnc2c1ncn2[C@@H]1O[C@@H]2COP(=O)(O)O[C@H]2[C@H]1O [Adenosine 3',5'-cyclic monophosphate] | 113 | 
22 | CC1=C(/C=C/C(C)=C/C=C/C(C)=C/C=C/C=C(C)/C=C/C=C(C)/C=C/C(=O)[C@]2(C)C[C@@H](O)CC2(C)C)C(C)(C)C[C@H](O)C1 | 130 | 

Row | Structure (SMILES) | cell viability (compound concentration: 3 uM) [%] | cell viability [1] [%]
23 | NC(N)=NC(N)=Nc1ccccc1 [1-Phenylbiguanide] | 102 | 
24 | C[C@H](Cc1ccc(O)c(O)c1)[C@@H](C)Cc1ccc(O)c(O)c1 | 113 | 
25 | COc1ccc2c(=O)cc(-c3ccc(O)cc3)oc2c1 |  | 80.8
26 | NCCc1ccc(O)c(O)c1 | 99.6 | 
27 | NCCc1ccc(O)c(O)c1 [Dopamine hydrochloride] | 104 ± 9.4 | 
28 | CC1(C)O[C@@H]2C[C@H]3[C@@H]4C[C@H](F)C5=CC(=O)C=C[C@]5(C)[C@H]4[C@@H](O)C[C@]3(C)[C@]2(C(=O)CO)O1 | 109 | 
29 | CC1(C)O[C@@H]2C[C@H]3[C@@H]4C[C@H](F)C5=CC(=O)C=C[C@]5(C)[C@H]4[C@@H](O)C[C@]3(C)[C@]2(C(=O)CO)O1 [Flunisolide] | 113 | 
30 | Cc1cc(C(=O)N/N=C/c2c(O)c(O)c(C(C)C)c3cc(C)c(-c4c(C)cc5c(C(C)C)c(O)c(O)c(/C=N/NC(=O)c6cc(C)[nH]n6)c5c4O)c(O)c23)n[nH]1 |  | 94.6
31 | C[C@H](CS)C(=O)N1CCC[C@H]1C(=O)O | 102 | 
32 | C[C@H](CS)C(=O)N1CCC[C@H]1C(=O)O [Captopril] | 102 ± 7.6 | 
33 | CN(Cc1cc(Br)cc(Br)c1N)C1CCCCC1 | 101 | 
34 | CN(Cc1cc(Br)cc(Br)c1N)C1CCCCC1 [Bromhexine] | 118 | 
35 | CN(Cc1cc(Br)cc(Br)c1N)C1CCCCC1 [Bromhexine hydrochloride] | 131 | 
36 | NC(=O)c1ccccc1 [Benzamide] | 104 | 
37 | COc1ccc2c(=O)cc(-c3ccccc3OC)oc2c1 [2',7-Dimethoxyflavone] |  | 96.2
38 | O=C1NC(c2cccc([N+](=O)[O-])c2)=CCN1c1ccccc1O [Icilin] | 97.9 | 
39 | CC(=O)OCC(=O)[C@@]1(O)CC[C@H]2[C@@H]3CCC4=CC(=O)C=C[C@]4(C)[C@H]3[C@@H](O)C[C@@]21C [prednisolone 21-acetate] |  | 106
40 | CC(=O)OCC(=O)[C@@]1(O)CC[C@H]2[C@@H]3CCC4=CC(=O)C=C[C@]4(C)[C@H]3[C@@H](O)C[C@@]21C | 110 | 
41 | Nc1ccn([C@@H]2O[C@H](COP(=O)(O)O)[C@@H](O)[C@H]2O)c(=O)n1 [Cytidine 5'-monophosphate] |  | 91.6
42 | C[C@]12CCC(=O)C=C1CC[C@@H]1[C@@H]2[C@@H](O)C[C@@]2(C)[C@H]1CC[C@]2(O)C(=O)COP(=O)(O)O | 110 | 
43 | Nc1ncnc2c1ncn2C1CCCC1 [9-cyclopentyladenine] | 110 | 
44 | CCCN(CC1CC1)c1nc(C)nc(Nc2c(Cl)cc(Cl)cc2Cl)c1Cl | 106 | 

Row | Structure (SMILES) | cell viability (compound concentration: 3 uM) [%] | cell viability [1] [%]
45 | CCCCCC(O)CCCC(=O)O (stereo not drawn) [5-hydroxydecanoic acid sodium] | 106 | 
46 | CC[C@H](c1ccc(O)cc1)[C@@H](CC)c1ccc(O)cc1 [Hexestrol] | 108 ± 5.2 | 
47 | CC[C@H](c1ccc(O)cc1)[C@@H](CC)c1ccc(O)cc1 | 110 | 
48 | Cc1c(Nc2ncccc2C(=O)O)cccc1C(F)(F)F [Flunixin meglumine] | 126 | 
49 | Cc1c(Nc2ncccc2C(=O)O)cccc1C(F)(F)F | 102 | 
50 | COc1cc(N)c(Cl)cc1C(=O)OCCN1CCCCC1 | 105 | 
51 | Cc1cc(=O)oc2cc(OC3OC(C(=O)O)C(O)C(O)C3O)ccc12 [4-Methylumbelliferyl-beta-D-glucuronide trihydrate] |  | 103
52 | CN(C(=O)CCCOc1ccc2[nH]c(=O)ccc2c1)C1CCCCC1 [Cilostamide] | 103.3 ± 0.59 | 
53 | NNC(=O)c1ccncc1 | 106 | 
54 | NNC(=O)c1ccncc1 [Isoniazid] | 110.9 ± 0.79 | 
55 | CCC(=O)OCC(=O)[C@@]1(OC(=O)CC)[C@@H](C)C[C@H]2[C@@H]3CCC4=CC(=O)C=C[C@]4(C)[C@@]3(F)[C@@H](O)C[C@@]21C | 112 | 
56 | CC1(C)O[C@@H]2C[C@H]3[C@@H]4C[C@H](F)C5=CC(=O)CC[C@]5(C)[C@H]4[C@@H](O)C[C@]3(C)[C@]2(C(=O)CO)O1 | 116 | 
57 | CC1(C)O[C@@H]2C[C@H]3[C@@H]4C[C@H](F)C5=CC(=O)CC[C@]5(C)[C@H]4[C@@H](O)C[C@]3(C)[C@]2(C(=O)CO)O1 [Flurandrenolide] | 107 | 
58 | N[C@@H](COP(=O)(O)O)C(=O)O [O-Phospho-L-serine] | 102 | 
59 | Cc1cccc(N(C)C(=S)Oc2ccc3ccccc3c2)c1 | 119 | 
60 | Cc1cccc(N(C)C(=S)Oc2ccc3ccccc3c2)c1 [Tolnaftate] | 89.6 | 
61 | COc1cc(C(=O)OC2CC3CCC2(C)C3(C)C)ccc1O (stereo not drawn) |  | 101
62 | O=c1[nH]c(=O)n([C@H]2C[C@H](O)[C@@H](CO)O2)cc1I [Idoxuridine] | 94.3 ± 7.5 | 
63 | Cc1cccc(-c2cc(=O)c3cc(Br)ccc3o2)c1 [6-Bromo-3'-methylflavone] |  | 102
64 | CCCCc1oc2ccccc2c1C(=O)c1cc(I)c(OCCN(CC)CC)c(I)c1 | 97.5 ± 4.3 | 
65 | CCCCc1oc2ccccc2c1C(=O)c1cc(I)c(OCCN(CC)CC)c(I)c1 [Amiodarone] | 112 | 
66 | CCCCc1oc2ccccc2c1C(=O)c1cc(I)c(OCCN(CC)CC)c(I)c1 [Amiodarone hydrochloride] | 119 ± 19 | 

Some values from above:
Value for CC[C@H](c1ccc(O)cc1)[C@@H](CC)c1ccc(O)cc1 [Hexestrol] under cell viability (compound concentration: 3 uM) [%]: 108 ± 5.2
Value for O=c1[nH]c(=O)n([C@H]2C[C@H](O)[C@@H](CO)O2)cc1I [Idoxuridine] under cell viability (compound concentration: 3 uM) [%]: 94.3 ± 7.5
Value for CC1(C)O[C@@H]2C[C@H]3[C@@H]4C[C@H](F)C5=CC(=O)CC[C@]5(C)[C@H]4[C@@H](O)C[C@]3(C)[C@]2(C(=O)CO)O1 [Flurandrenolide] under cell viability (compound concentration: 3 uM) [%]: 107
Value for Cc1cccc(N(C)C(=S)Oc2ccc3ccccc3c2)c1 [Tolnaftate] under cell viability (compound concentration: 3 uM) [%]: 89.6
Value for CCCCc1oc2ccccc2c1C(=O)c1cc(I)c(OCCN(CC)CC)c(I)c1 [Amiodarone hydrochloride] under cell viability (compound concentration: 3 uM) [%]: 119 ± 19

Carrying on:

Row | Structure (SMILES) | cell viability (compound concentration: 3 uM) [%] | cell viability [1] [%]
67 | O=C(O)c1cccnc1 | 108 | 
68 | O=C(O)c1cccnc1 [Niacin] | 112 | 
69 | O=C(O)c1cc2cc(F)ccc2[nH]1 [5-Fluoroindole-2-carboxylic acid] | 99.2 | 
70 | CCN1CCCC1CNC(=O)c1cc(S(N)(=O)=O)ccc1OC (stereo not drawn) [Sulpiride] | 88.1 | 
71 | CCN1CCCC1CNC(=O)c1cc(S(N)(=O)=O)ccc1OC (stereo not drawn) | 104 | 
72 | CC1(C)OC2[C@@H](O1)[C@H](n1cnc3c(N)ncnc31)O[C@@H]2CO (stereo partly drawn) [2',3'-O-Isopropylideneadenosine] |  | 92.7
73 | CC12CC3CC(C)(C1)CC(N)(C3)C2 | 102 ± 14 | 
74 | CC12CC3CC(C)(C1)CC(N)(C3)C2 [Memantine hydrochloride] | 118 | 
75 | CC12CC3CC(C)(C1)CC(N)(C3)C2 [Memantine Hydrochloride] | 96.8 | 
76 | CC12CC3CC(C)(C1)CC(N)(C3)C2 [Memantine] | 99.5 | 
77 | N[C@@H](Cc1cnc[nH]1)C(=O)Nc1ccc2ccccc2c1 [L-Histidine beta-naphthylamide] |  | 97.5
78 | CCOc1ccc(Cc2nccc3cc(OCC)c(OCC)cc23)cc1OCC [Ethaverine hydrochloride] | 100 | 
79 | CCOc1ccc(Cc2nccc3cc(OCC)c(OCC)cc23)cc1OCC | 109 | 
80 | O=C(Nc1ccc([N+](=O)[O-])cc1Cl)c1cc(Cl)ccc1O | 51.7 ± 22 | 
81 | O=C(Nc1ccc([N+](=O)[O-])cc1Cl)c1cc(Cl)ccc1O [Niclosamide] | 48.6 ± 14 | 
82 | C#C[C@]1(O)CC[C@H]2[C@@H]3CCC4=Cc5oncc5C[C@]4(C)[C@H]3CC[C@@]21C [Danazol] | 101 ± 4.2 | 
83 | C#C[C@]1(O)CC[C@H]2[C@@H]3CCC4=Cc5oncc5C[C@]4(C)[C@H]3CC[C@@]21C | 98.1 | 
84 | Nc1ccc(S(=O)(=O)O)cc1.Nc1ccc(S(=O)(=O)O)cc1.[Zn] | 98.4 | 
85 | COc1ccc(-c2cc(=O)c3c(OC)c(OC)c(OC)c(OC)c3o2)cc1OC | 121 | 
86 | COc1ccc(-c2cc(=O)c3c(OC)c(OC)c(OC)c(OC)c3o2)cc1OC [Nobiletin] | 87.7 | 
